Patent US20220340666A1
Results are given in words; binding and its absence hold for the method and conditions named. Binding calls can cover weak binding; strength is not graded here.

Key:
[1] = target: mouse Galectin-9 CRD2 (residues 226-353), biotinylated (mouse); assay: phage ELISA, phage-displayed Fab
[2] = target: mouse Galectin-9 CRD2 (residues 226-353), biotinylated (mouse); assay: SPR (FIG. 6), purified Fab
[3] = target: mouse Galectin-9 CRD2 (residues 226-353), biotinylated (mouse); assay: SPR, Fab over CRD2 on Avicap chip (OneStep)

Binder	binding [1]	binding [2]	binding [3]
G9.2-15 Fab (Fab, V domains shown) VH: EVQLVESGGGLVQPGGSLRLSCAASGFTVSSSSIHWVRQAPGKGLEWVASIYSSSGYTSYADSVKGRFTISADTSKNTAYLQMNSLRAEDTAVYYCARNVENYPYWAWPWGYYGAIDYWGQGTLVTVSS VL: DIQMTQSPSSLSASVGDRVTITCRASQSVSSAVAWYQQKPGKAPKLLIYSASSLYSGVPSRFSGSRSGTDFTLTISSLQPEDFATYYCQQSSWGLITFGQGTKVEIKR	binds	binds	
G9.2-17mut6 Fab (Fab, V domains shown) VH: EVQLVESGGGLVQPGGSLRLSCAASGFTVSSSSIHWVRQAPGKGLEWVAYISSSSGYTYYADSVKGRFTISADTSKNTAYLQMNSLRAEDTAVYYCARYWSYPSWSPYRGMDYWGQGTLVTVSS VL: DIQMTQSPSSLSASVGDRVTITCRASQSVSSAVAWYQQKPGKAPKLLIYSASSLYSGVPSRFSGSRSGTDFTLTISSLQPEDFATYYCQQSSTDPITFGQGTKVEIKR			binds
